The target in test [1] is recombinant Angiopoietin-2 (Ang2), C-terminal His-tag (human) (UniProt O15123). Nature of the test: condition: only after 6 hours incubation of HUVEC with Ang2; proximity labelling; as a1 but HUVEC incubated 6 hours with His-tag Ang2 (100 ng/ml); only the target purified.
Test [2] shares this target. As to the kind of experiment: proximity labelling; starved HUVEC incubated 5 minutes with His-tag Ang2 (100 ng/ml); crosslinking (2 mM DSP), anti-His-tag antibody, HRP-conjugated secondary antibody, hydrogen peroxide and phenol biotin, streptavidin-coated Dynabeads, LC-MS-MS; only the target purified.

Chains of the proteins cited; added tags and fusions are not shown. Residues count along the entry.
UniProt O15123, residues 19-496: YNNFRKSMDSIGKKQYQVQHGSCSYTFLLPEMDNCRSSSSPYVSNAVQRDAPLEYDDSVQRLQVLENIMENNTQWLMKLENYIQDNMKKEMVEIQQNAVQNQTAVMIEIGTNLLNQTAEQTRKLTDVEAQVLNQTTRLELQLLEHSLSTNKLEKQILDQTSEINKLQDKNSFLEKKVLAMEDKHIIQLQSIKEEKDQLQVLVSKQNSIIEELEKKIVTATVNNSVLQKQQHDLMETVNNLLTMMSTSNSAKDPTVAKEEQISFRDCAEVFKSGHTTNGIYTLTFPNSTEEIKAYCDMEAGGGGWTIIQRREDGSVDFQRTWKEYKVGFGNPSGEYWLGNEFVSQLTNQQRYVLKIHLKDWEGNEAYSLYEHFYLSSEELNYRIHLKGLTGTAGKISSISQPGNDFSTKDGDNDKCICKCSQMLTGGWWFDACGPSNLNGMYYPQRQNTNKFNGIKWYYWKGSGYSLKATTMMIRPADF
UniProt P21802, residues 22-821: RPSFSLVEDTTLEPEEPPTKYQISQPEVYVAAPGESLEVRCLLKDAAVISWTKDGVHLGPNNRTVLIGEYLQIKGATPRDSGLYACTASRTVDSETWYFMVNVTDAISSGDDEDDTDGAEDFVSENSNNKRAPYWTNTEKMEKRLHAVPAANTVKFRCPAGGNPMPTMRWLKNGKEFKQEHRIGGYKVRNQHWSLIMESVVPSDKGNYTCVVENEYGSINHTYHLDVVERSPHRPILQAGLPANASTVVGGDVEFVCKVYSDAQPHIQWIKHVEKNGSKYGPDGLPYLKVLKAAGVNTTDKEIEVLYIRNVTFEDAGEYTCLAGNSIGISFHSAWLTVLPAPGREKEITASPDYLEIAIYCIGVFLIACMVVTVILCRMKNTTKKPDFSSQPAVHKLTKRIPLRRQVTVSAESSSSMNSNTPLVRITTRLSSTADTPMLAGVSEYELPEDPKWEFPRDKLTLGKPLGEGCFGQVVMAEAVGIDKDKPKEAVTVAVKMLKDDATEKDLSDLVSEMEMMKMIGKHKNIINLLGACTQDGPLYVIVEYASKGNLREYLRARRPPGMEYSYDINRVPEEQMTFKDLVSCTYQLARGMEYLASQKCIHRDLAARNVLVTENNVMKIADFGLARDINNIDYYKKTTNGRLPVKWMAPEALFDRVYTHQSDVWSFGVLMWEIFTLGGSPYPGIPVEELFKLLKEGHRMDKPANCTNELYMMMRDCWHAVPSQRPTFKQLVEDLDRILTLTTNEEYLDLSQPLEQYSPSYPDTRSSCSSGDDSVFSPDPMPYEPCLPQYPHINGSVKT

Binding data for 1 substance are collected here from PMC12325526.

Results are given in words; binding and its absence hold for the method and conditions named. Binding seen in cells or lysates may run through a third protein. These calls come from enrichment with a bait or labelling near it, and not all partners need be listed. For some assays here: No binding means not detected with the bait.

“FGFR2, endogenous in HUVEC (from UniProt P21802 22-821) (receptor)”: the binding entry in test [1] is recorded as “no binding”; in test [2], “binds”.
